# No constants are given. Whether binding was seen depends on the method and setting. In cells and extracts the contact can be indirect. A yes stands for co-enrichment or nearness to the bait. Other partners may have been found.
# Amino acid sequences for entries named in this document (tags omitted).
# UniProt Q9BYV9: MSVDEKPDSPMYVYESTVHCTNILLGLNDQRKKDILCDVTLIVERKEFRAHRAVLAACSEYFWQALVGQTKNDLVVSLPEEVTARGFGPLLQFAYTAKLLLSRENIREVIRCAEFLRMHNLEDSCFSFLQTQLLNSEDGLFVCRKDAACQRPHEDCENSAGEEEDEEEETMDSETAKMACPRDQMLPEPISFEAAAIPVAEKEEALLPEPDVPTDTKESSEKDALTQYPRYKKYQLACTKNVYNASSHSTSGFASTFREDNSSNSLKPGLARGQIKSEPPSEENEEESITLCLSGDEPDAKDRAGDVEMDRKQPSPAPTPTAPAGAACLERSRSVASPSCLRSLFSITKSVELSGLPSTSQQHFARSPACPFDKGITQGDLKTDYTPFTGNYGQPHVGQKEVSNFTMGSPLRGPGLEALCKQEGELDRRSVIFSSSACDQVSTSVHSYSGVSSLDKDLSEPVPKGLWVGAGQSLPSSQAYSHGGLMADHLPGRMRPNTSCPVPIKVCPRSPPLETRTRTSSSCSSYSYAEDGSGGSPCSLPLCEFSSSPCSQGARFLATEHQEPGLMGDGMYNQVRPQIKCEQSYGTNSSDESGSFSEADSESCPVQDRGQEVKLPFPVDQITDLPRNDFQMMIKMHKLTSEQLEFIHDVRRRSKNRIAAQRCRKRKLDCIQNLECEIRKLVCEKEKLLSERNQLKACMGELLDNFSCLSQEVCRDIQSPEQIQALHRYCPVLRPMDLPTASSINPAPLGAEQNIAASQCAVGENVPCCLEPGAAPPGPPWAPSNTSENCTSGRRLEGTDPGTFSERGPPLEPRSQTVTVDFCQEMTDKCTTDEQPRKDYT
# UniProt P17174: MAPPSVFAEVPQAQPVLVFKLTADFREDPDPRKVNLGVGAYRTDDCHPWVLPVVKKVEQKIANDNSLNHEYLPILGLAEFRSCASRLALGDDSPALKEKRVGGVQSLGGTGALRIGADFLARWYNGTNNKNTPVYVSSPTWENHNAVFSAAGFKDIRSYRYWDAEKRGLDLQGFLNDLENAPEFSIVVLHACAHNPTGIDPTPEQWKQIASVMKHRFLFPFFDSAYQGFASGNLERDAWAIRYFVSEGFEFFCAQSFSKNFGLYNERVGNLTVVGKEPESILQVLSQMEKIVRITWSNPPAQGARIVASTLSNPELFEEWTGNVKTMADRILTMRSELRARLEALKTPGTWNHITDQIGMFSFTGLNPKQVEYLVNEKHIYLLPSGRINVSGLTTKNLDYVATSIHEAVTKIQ
# UniProt P54727: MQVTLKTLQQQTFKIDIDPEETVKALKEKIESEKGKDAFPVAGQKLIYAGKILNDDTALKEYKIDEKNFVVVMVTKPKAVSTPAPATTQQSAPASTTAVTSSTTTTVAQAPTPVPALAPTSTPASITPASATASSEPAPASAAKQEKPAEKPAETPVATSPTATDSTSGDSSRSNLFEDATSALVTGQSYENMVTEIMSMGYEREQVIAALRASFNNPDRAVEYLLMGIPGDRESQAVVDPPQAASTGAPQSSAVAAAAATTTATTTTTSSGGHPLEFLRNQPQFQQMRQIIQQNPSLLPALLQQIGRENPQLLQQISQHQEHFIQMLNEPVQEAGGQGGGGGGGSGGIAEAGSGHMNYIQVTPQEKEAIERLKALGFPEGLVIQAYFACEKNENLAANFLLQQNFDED
# UniProt O00487: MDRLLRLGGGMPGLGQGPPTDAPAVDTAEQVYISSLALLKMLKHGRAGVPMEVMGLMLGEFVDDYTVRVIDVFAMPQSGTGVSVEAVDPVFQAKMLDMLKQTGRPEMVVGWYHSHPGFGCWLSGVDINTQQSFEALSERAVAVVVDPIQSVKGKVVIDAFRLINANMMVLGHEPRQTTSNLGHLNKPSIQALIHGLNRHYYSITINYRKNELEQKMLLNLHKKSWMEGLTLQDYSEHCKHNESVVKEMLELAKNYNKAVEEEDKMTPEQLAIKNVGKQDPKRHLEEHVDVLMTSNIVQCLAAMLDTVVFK
# UniProt P25786: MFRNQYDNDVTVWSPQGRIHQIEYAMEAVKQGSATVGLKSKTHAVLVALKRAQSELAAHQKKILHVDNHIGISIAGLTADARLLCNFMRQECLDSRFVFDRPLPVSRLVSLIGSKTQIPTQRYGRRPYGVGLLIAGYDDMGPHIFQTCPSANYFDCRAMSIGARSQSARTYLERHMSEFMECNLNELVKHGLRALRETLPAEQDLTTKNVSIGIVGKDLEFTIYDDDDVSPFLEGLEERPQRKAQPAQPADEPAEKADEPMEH
# UniProt P55036: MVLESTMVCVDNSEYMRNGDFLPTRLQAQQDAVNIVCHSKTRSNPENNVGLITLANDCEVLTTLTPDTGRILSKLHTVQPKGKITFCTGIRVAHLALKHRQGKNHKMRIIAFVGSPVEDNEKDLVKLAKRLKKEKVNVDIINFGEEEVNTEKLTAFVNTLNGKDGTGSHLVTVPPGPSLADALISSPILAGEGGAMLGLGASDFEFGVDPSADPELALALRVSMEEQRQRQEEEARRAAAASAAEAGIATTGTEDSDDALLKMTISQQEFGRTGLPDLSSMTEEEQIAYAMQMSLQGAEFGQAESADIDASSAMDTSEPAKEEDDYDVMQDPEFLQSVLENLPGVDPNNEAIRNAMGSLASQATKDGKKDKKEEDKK
# UniProt Q5RKV6: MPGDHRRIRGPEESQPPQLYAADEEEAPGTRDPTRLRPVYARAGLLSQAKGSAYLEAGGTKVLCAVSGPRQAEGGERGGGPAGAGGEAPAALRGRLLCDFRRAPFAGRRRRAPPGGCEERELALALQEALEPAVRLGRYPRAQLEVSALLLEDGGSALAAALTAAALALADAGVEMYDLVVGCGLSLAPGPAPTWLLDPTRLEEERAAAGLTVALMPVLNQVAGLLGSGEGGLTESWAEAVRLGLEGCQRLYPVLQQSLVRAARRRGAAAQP
# UniProt P15924: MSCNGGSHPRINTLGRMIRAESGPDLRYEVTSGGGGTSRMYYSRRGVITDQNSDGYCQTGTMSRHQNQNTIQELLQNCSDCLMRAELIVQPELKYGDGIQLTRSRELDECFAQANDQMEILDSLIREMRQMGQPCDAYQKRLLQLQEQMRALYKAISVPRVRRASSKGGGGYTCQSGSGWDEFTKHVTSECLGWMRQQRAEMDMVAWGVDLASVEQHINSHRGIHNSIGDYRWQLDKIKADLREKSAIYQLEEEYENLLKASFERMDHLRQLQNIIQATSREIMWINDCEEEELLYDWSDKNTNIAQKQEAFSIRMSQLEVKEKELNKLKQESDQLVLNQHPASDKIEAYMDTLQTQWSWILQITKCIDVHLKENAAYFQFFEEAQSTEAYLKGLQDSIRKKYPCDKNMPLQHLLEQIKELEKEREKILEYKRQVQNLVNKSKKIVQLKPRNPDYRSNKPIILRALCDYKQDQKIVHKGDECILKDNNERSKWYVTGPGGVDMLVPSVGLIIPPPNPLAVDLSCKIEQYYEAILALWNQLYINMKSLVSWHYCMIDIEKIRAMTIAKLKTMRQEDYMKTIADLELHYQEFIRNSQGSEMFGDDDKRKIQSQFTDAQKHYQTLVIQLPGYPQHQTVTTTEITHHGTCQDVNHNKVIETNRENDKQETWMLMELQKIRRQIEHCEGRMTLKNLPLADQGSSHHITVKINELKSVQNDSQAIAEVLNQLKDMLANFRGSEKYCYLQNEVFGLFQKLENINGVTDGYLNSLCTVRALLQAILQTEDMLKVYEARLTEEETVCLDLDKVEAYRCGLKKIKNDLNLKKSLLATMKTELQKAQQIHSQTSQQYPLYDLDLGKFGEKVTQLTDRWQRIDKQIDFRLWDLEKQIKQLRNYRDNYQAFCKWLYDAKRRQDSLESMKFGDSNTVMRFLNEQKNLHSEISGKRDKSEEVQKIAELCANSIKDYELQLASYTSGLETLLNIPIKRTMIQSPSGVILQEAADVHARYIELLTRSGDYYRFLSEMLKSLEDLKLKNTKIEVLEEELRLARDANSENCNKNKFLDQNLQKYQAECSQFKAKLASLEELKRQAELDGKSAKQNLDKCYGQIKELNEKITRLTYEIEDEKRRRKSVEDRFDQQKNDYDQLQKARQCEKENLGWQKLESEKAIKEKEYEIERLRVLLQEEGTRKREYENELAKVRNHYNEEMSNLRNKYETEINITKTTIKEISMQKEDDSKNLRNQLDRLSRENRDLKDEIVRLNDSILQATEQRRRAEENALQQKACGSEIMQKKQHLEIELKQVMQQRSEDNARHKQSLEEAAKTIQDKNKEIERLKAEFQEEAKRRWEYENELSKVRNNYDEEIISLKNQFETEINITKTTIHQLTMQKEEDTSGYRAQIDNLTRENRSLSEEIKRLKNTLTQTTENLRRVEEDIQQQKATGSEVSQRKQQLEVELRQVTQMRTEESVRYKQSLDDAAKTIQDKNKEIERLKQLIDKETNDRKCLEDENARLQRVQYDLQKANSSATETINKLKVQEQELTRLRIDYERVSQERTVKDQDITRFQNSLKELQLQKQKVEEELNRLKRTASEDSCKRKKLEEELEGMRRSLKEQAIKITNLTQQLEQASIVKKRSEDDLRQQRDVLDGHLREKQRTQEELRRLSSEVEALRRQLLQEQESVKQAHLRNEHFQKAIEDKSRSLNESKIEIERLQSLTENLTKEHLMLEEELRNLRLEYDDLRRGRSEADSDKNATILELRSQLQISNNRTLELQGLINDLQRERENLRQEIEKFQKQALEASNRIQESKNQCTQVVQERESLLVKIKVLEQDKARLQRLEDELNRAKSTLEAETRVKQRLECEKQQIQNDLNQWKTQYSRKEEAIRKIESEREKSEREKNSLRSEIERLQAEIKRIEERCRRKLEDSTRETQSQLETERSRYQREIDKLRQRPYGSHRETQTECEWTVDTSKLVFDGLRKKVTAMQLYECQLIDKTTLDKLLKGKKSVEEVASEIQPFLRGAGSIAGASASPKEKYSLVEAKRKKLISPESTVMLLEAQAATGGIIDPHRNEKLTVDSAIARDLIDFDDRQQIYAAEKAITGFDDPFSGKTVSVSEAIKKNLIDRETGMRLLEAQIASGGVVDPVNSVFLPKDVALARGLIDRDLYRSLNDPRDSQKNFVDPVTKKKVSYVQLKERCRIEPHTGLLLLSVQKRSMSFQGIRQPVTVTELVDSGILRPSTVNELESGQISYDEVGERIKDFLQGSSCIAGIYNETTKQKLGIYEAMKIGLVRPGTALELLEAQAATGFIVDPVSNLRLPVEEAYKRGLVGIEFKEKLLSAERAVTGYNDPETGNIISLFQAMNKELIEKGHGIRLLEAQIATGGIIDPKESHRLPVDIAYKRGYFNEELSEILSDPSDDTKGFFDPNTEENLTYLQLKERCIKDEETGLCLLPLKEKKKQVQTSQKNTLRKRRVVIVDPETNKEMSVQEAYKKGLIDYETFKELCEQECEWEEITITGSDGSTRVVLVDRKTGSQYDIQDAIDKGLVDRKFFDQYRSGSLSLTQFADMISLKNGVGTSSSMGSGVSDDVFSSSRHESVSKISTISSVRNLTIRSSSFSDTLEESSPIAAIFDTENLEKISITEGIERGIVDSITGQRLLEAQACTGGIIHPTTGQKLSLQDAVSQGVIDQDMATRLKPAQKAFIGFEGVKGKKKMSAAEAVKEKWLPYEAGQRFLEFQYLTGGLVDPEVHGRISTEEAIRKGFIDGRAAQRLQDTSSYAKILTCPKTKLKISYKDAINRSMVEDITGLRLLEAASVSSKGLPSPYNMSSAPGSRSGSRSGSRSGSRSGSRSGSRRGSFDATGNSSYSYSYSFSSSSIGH
# UniProt P84095: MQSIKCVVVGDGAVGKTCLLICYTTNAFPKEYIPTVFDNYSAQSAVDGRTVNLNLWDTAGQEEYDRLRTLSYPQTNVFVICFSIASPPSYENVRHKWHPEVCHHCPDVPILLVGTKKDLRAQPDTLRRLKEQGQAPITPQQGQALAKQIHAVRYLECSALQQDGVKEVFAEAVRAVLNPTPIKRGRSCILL
# UniProt Q96AE4: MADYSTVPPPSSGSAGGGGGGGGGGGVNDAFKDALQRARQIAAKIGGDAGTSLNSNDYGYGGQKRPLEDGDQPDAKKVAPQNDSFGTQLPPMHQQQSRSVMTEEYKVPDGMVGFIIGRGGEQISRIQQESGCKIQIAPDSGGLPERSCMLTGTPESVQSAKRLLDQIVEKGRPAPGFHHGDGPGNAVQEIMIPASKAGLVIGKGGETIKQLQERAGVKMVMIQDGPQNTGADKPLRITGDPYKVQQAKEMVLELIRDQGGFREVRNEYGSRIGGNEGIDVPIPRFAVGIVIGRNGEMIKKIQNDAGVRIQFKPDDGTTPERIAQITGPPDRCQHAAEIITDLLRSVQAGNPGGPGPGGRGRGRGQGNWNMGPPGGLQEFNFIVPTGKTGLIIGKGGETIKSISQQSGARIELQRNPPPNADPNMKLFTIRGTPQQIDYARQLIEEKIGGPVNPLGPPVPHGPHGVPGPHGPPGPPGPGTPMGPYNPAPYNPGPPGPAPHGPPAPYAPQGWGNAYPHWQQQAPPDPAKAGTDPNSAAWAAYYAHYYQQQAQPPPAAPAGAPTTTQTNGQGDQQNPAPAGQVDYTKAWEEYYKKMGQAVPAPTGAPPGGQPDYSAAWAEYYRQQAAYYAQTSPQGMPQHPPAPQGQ
# B1: RPN1 (protein, UniProt P04843 24-607)
# chain: ASSEAPPLINEDVKRTVDLSSHLAKVTAEVVLAHLGGGSTSRATSFLLALEPELEARLAHLGVQVKGEDEEENNLEVRETKIKGKSGRFFTVKLPVALDPGAKISVIVETVYTHVLHPYPTQITQSEKQFVVFEGNHYFYSPYPTKTQTMRVKLASRNVESYTKLGNPTRSEDLLDYGPFRDVPAYSQDTFKVHYENNSPFLTITSMTRVIEVSHWGNIAVEENVDLKHTGAVLKGPFSRYDYQRQPDSGISSIRSFKTILPAAAQDVYYRDEIGNVSTSHLLILDDSVEMEIRPRFPLFGGWKTHYIVGYNLPSYEYLYNLGDQYALKMRFVDHVFDEQVIDSLTVKIILPEGAKNIEIDSPYEISRAPDELHYTYLDTFGRPVIVAYKKNLVEQHIQDIVVHYTFNKVLMLQEPLLVVAAFYILFFTVIIYVRLDFSITKDPAAEARMKVACITEQVLTLVNKRIGLYRHFDETVNRYKQSRDISTLNSGKKSLETEHKALTSEIALLQSRLKTEGSDLCDRVSEMQKLDAQVKELVLKSAVEAERLVAGKLKKDTYIENEKLISGKRQELVTKIDHILDAL
# B2: GANAB (enzyme, UniProt Q14697 29-944)
# chain: ITLAVDRSNFKTCEESSFCKRQRSIRPGLSPYRALLDSLQLGPDSLTVHLIHEVTKVLLVLELQGLQKNMTRFRIDELEPRRPRYRVPDVLVADPPIARLSVSGRDENSVELTMAEGPYKIILTARPFRLDLLEDRSLLLSVNARGLLEFEHQRAPRVSQGSKDPAEGDGAQPEETPRDGDKPEETQGKAEKDEPGAWEETFKTHSDSKPYGPMSVGLDFSLPGMEHVYGIPEHADNLRLKVTEGGEPYRLYNLDVFQYELYNPMALYGSVPVLLAHNPHRDLGIFWLNAAETWVDISSNTAGKTLFGKMMDYLQGSGETPQTDVRWMSETGIIDVFLLLGPSISDVFRQYASLTGTQALPPLFSLGYHQSRWNYRDEADVLEVDQGFDDHNLPCDVIWLDIEHADGKRYFTWDPSRFPQPRTMLERLASKRRKLVAIVDPHIKVDSGYRVHEELRNLGLYVKTRDGSDYEGWCWPGSAGYPDFTNPTMRAWWANMFSYDNYEGSAPNLFVWNDMNEPSVFNGPEVTMLKDAQHYGGWEHRDVHNIYGLYVHMATADGLRQRSGGMERPFVLARAFFAGSQRFGAVWTGDNTAEWDHLKISIPMCLSLGLVGLSFCGADVGGFFKNPEPELLVRWYQMGAYQPFFRAHAHLDTGRREPWLLPSQHNDIIRDALGQRYSLLPFWYTLLYQAHREGIPVMRPLWVQYPQDVTTFNIDDQYLLGDALLVHPVSDSGAHGVQVYLPGQGEVWYDIQSYQKHHGPQTLYLPVTLSSIPVFQRGGTIVPRWMRVRRSSECMKDDPITLFVALSPQGTAQGELFLDDGHTFNYQTRQEFLLRRFSFSGNTLVSSSADPEGHFETPIWIERVVIIGAGKPAAVVLQTKGSPESRLSFQHDPETSVLVLRKPGINVASDWSIHLR
# B3: PPA1 (enzyme, UniProt Q15181 1-289)
# chain: MSGFSTEERAAPFSLEYRVFLKNEKGQYISPFHDIPIYADKDVFHMVVEVPRWSNAKMEIATKDPLNPIKQDVKKGKLRYVANLFPYKGYIWNYGAIPQTWEDPGHNDKHTGCCGDNDPIDVCEIGSKVCARGEIIGVKVLGILAMIDEGETDWKVIAINVDDPDAANYNDINDVKRLKPGYLEATVDWFRRYKVPDGKPENEFAFNAEFKDKDFAIDIIKSTHDHWKALVTKKTNGKGISCMNTTLSESPFKCDPDAARAIVDALPPPCESACTVPTDVDKWFHHQKN
# B4: TALDO1 (enzyme, UniProt P37837 1-337)
# chain: MSSSPVKRQRMESALDQLKQFTTVVADTGDFHAIDEYKPQDATTNPSLILAAAQMPAYQELVEEAIAYGRKLGGSQEDQIKNAIDKLFVLFGAEILKKIPGRVSTEVDARLSFDKDAMVARARRLIELYKEAGISKDRILIKLSSTWEGIQAGKELEEQHGIHCNMTLLFSFAQAVACAEAGVTLISPFVGRILDWHVANTDKKSYEPLEDPGVKSVTKIYNYYKKFSYKTIVMGASFRNTGEIKALAGCDFLTISPKLLGELLQDNAKLVPVLSAKAAQASDLEKIHLDEKSFRWLHNEDQMAVEKLSDGIRKFAADAVKLERMLTERMFNAENGK
# B5: PRDX6 (enzyme, UniProt P30041 1-224)
# chain: MPGGLLLGDVAPNFEANTTVGRIRFHDFLGDSWGILFSHPRDFTPVCTTELGRAAKLAPEFAKRNVKLIALSIDSVEDHLAWSKDINAYNCEEPTEKLPFPIIDDRNRELAILLGMLDPAEKDEKGMPVTARVVFVFGPDKKLKLSILYPATTGRNFDEILRVVISLQLTAEKRVATPVDWKDGDSVMVLPTIPEEEAKKLFPKGVFTKELPSGKKYLRYTPQP
# B6: GOT2 (enzyme, UniProt P00505 30-430)
# chain: SSWWTHVEMGPPDPILGVTEAFKRDTNSKKMNLGVGAYRDDNGKPYVLPSVRKAEAQIAAKNLDKEYLPIGGLAEFCKASAELALGENSEVLKSGRFVTVQTISGTGALRIGASFLQRFFKFSRDVFLPKPTWGNHTPIFRDAGMQLQGYRYYDPKTCGFDFTGAVEDISKIPEQSVLLLHACAHNPTGVDPRPEQWKEIATVVKKRNLFAFFDMAYQGFASGDGDKDAWAVRHFIEQGINVCLCQSYAKNMGLYGERVGAFTMVCKDADEAKRVESQLKILIRPMYSNPPLNGARIAAAILNTPDLRKQWLQEVKVMADRIIGMRTQLVSNLKKEGSTHNWQHITDQIGMFCFTGLKPEQVERLIKEFSIYMTKDGRISVAGVTSSNVGYLAHAIHQVTK
# B7: ECH1 (enzyme, UniProt Q13011 34-328)
# chain: TGSSAQEEASGVALGEAPDHSYESLRVTSAQKHVLHVQLNRPNKRNAMNKVFWREMVECFNKISRDADCRAVVISGAGKMFTAGIDLMDMASDILQPKGDDVARISWYLRDIITRYQETFNVIERCPKPVIAAVHGGCIGGGVDLVTACDIRYCAQDAFFQVKEVDVGLAADVGTLQRLPKVIGNQSLVNELAFTARKMMADEALGSGLVSRVFPDKEVMLDAALALAAEISSKSPVAVQSTKVNLLYSRDHSVAESLNYVASWNMSMLQTQDLVKSVQATTENKELKTVTFSKL
# B8: PLCG2 (enzyme, UniProt P16885 1-1265)
# chain: MSTTVNVDSLAEYEKSQIKRALELGTVMTVFSFRKSTPERRTVQVIMETRQVAWSKTADKIEGFLDIMEIKEIRPGKNSKDFERAKAVRQKEDCCFTILYGTQFVLSTLSLAADSKEDAVNWLSGLKILHQEAMNASTPTIIESWLRKQIYSVDQTRRNSISLRELKTILPLINFKVSSAKFLKDKFVEIGAHKDELSFEQFHLFYKKLMFEQQKSILDEFKKDSSVFILGNTDRPDASAVYLHDFQRFLIHEQQEHWAQDLNKVRERMTKFIDDTMRETAEPFLFVDEFLTYLFSRENSIWDEKYDAVDMQDMNNPLSHYWISSSHNTYLTGDQLRSESSPEAYIRCLRMGCRCIELDCWDGPDGKPVIYHGWTRTTKIKFDDVVQAIKDHAFVTSSFPVILSIEEHCSVEQQRHMAKAFKEVFGDLLLTKPTEASADQLPSPSQLREKIIIKHKKLGPRGDVDVNMEDKKDEHKQQGELYMWDSIDQKWTRHYCAIADAKLSFSDDIEQTMEEEVPQDIPPTELHFGEKWFHKKVEKRTSAEKLLQEYCMETGGKDGTFLVRESETFPNDYTLSFWRSGRVQHCRIRSTMEGGTLKYYLTDNLTFSSIYALIQHYRETHLRCAEFELRLTDPVPNPNPHESKPWYYDSLSRGEAEDMLMRIPRDGAFLIRKREGSDSYAITFRARGKVKHCRINRDGRHFVLGTSAYFESLVELVSYYEKHSLYRKMRLRYPVTPELLERYNMERDINSLYDVSRMYVDPSEINPSMPQRTVKALYDYKAKRSDELSFCRGALIHNVSKEPGGWWKGDYGTRIQQYFPSNYVEDISTADFEELEKQIIEDNPLGSLCRGILDLNTYNVVKAPQGKNQKSFVFILEPKQQGDPPVEFATDRVEELFEWFQSIREITWKIDTKENNMKYWEKNQSIAIELSDLVVYCKPTSKTKDNLENPDFREIRSFVETKADSIIRQKPVDLLKYNQKGLTRVYPKGQRVDSSNYDPFRLWLCGSQMVALNFQTADKYMQMNHALFSLNGRTGYVLQPESMRTEKYDPMPPESQRKILMTLTVKVLGARHLPKLGRSIACPFVEVEICGAEYDNNKFKTTVVNDNGLSPIWAPTQEKVTFEIYDPNLAFLRFVVYEEDMFSDPNFLAHATYPIKAVKSGFRSVPLKNGYSEDIELASLLVFCEMRPVLESEEELYSSCRQLRRRQEELNNQLFLYDTHQNLRNANRDALVKEFSVNENQLQLYQEKCNKRLREKRVSNSKFYS
# B9: ACO2 (enzyme, UniProt Q99798 28-780)
# chain: QRAKVAMSHFEPNEYIHYDLLEKNINIVRKRLNRPLTLSEKIVYGHLDDPASQEIERGKSYLRLRPDRVAMQDATAQMAMLQFISSGLSKVAVPSTIHCDHLIEAQVGGEKDLRRAKDINQEVYNFLATAGAKYGVGFWKPGSGIIHQIILENYAYPGVLLIGTDSHTPNGGGLGGICIGVGGADAVDVMAGIPWELKCPKVIGVKLTGSLSGWSSPKDVILKVAGILTVKGGTGAIVEYHGPGVDSISCTGMATICNMGAEIGATTSVFPYNHRMKKYLSKTGREDIANLADEFKDHLVPDPGCHYDQLIEINLSELKPHINGPFTPDLAHPVAEVGKVAEKEGWPLDIRVGLIGSCTNSSYEDMGRSAAVAKQALAHGLKCKSQFTITPGSEQIRATIERDGYAQILRDLGGIVLANACGPCIGQWDRKDIKKGEKNTIVTSYNRNFTGRNDANPETHAFVTSPEIVTALAIAGTLKFNPETDYLTGTDGKKFRLEAPDADELPKGEFDPGQDTYQHPPKDSSGQHVDVSPTSQRLQLLEPFDKWDGKDLEDLQILIKVKGKCTTDHISAAGPWLKFRGHLDNISNNLLIGAINIENGKANSVRNAVTQEFGPVPDTARYYKKHGIRWVVIGDENYGEGSSREHAALEPRHLGGRAIITKSFARIHETNLKKQGLLPLTFADPADYNKIHPVDKLTIQGLKDFTPGKPLKCIIKHPNGTQETILLNHTFNETQIEWFRAGSALNRMKELQQ
# Target: BACH2 (BTB and CNC homology 1, basic leucine zipper transcription factor 2) (human (endogenous in MEC-1)) (UniProt Q9BYV9)
# Assay: affinity purification with mass spectrometry; reciprocal co-immunoprecipitation with anti-BACH2 or anti-BCL6 from MEC-1 CLL cells, followed by Orbitrap mass spectrometry
molecule,measurement,value
GOT1 (from UniProt P17174 1-413) (enzyme),binding,binds
RAD23B (from UniProt P54727 1-409),binding,binds
PSMD14 (from UniProt O00487 1-310),binding,binds
DYNC1H1 (from UniProt Q14204 1-4646),binding,binds
COPB1 (from UniProt P53618 1-953),binding,binds
proteasome adapter and scaffold proteins (ECPAS) (from UniProt Q5VYK3 1-1845),binding,binds
PSMA1 (from UniProt P25786 1-263),binding,binds
PSMD4 (from UniProt P55036 1-377),binding,binds
EXOSC6 (from UniProt Q5RKV6 1-272),binding,binds
DSP (from UniProt P15924 1-2871),binding,binds
RHOG (from UniProt P84095 1-191),binding,binds
FUBP1 (far upstream element binding protein 1) (from UniProt Q96AE4 1-644),binding,binds
B1,binding,binds
B2,binding,binds
B3,binding,binds
B4,binding,binds
B5,binding,binds
B6,binding,binds
B7,binding,binds
B8,binding,binds
B9,binding,binds
